For at least one compound, name, drawing or mass did not settle the structure.
Columns and labels:
mouse skin = test: Glucocorticoid-induced skin atrophy in mice (morphometric analysis of dorsal skin); assay type: in vivo; settings: B6×129 mice, topical Rapamycin in 70% EtOH before FA, 2 weeks
Experimental: Seven-week-old females in the telogen stage of the hair cycle were shaved and treated 3 days later. Glucocorticoid FA was applied topically (2 μg/animal) in 200 μl acetone to the back skin once or up to four times every third day as described (Chebotaev et al, 2007c). Control animals were treated with acetone only. Animals were injected i.p. with bromodeoxyuridine (BrdU, Sigma-Aldrich, 50 μg/g of animal weight) 1 h before skin was harvested. Epidermis and s.c. fat were isolated from the murine dorsal skin mechanically by scraping (Chebotaev et al, 2007c). […] Quantification of the epidermal width and number of basal keratinocytes (as the readouts for skin atrophy and hypoplasia of raft epidermis) was performed in dorsal skin and ORC sections stained with H&E. The number of dermal cells was determined on sections stained with Masson's trichrome in the upper (papillary) dermis that is distinguishable from the lower (reticular) dermis ([…] et al, 2013). At least 10 individual fields per slide with at least three samples in each experimental group were counted using Axioplan2 microscope software (Carl Zeiss). All measurements are presented as % to corresponding control.

REDD1 [1] = test: REDD1 expression in mouse epidermis and s.c. adipose (Q-PCR, Western blot, immunostaining); assay type: in vivo; settings: F1 C57B1×129 mice, topical rapamycin 500 nmol/mouse×6 hrs pre-treatment in 70% EtOH, then FA
Experimental: FIG. 16. […] F1 C57B1×129 mice were treated topically with solvent (control), FA ((2 μg/mouse×8 hrs) or pretreated with Rapamycin (500 nmol/mouse×6 hrs) followed by FA treatment for 8 h. RNA and whole cell proteins were extracted from epidermis isolated as described in Matherials and Methods. A. Q-PCR analysis of REDD1 expression. The results were normalized to the expression of the housekeeping Rp127 gene, and presented as fold of change compared to control animals. The means+/−SD calculated for three individual RNA samples/condition. a—Statistically significant difference (P<0.05) compared to control; b—Statistically significant differences (P<0.05) compared to FA treatment. B. Western blot analysis of whole cell proteins in epidermis. Membranes were probed with anti-GAPDH antibodies to verify equal protein loading and transfer. C. Ear edema test. Ear edema was induced by croton oil (CO, 20 ul/ear) as in Materials and Methods. […] Ear punch weight results are presented as % to control (only solvent treatment) ear weight The means+/−SD were calculated for six individual ear punches/condition in one representative experiment (out of three experiments). a—Statistically significant differences (P<0.05) compared to control treatment; b—Statistically significant differences (P<0.05) compared to CO or CO+rapa treatment. […]

[2] = tested on: croton oil-induced ear edema; test: Croton oil-induced ear edema test; assay type: in vivo, mouse; settings: rapamycin 200 ng/ear, 6 hrs pre-treatment
GR [3] = test: GRE.Luciferase reporter assay; assay type: cell-based, human; settings: HaCaT and CEM cells, 1 uM Rapa 6 h then FA 1 uM 8 hr
REDD1 [4] = test: REDD1 expression in HaCaT, NHEK and CEM cells (Q-PCR, Western blot); assay type: cell-based, human; settings: FA 1 uM 24 h; for basal and glucocorticoid-induced REDD1 mRNA and protein: HaCaT keratinocytes and CEM lymphoid cells, 6 hr pre-treatment, 1-5 uM
GR [5] = test: GR nuclear translocation (immunofluorescence in HaCaT, Western blot of nuclear extracts in CEM); assay type: cell-based, human; settings: CEM and HaCaT cells, Rapamycin 1 uM×6 h pretreatment
Experimental: (§1) FIG. 15. Rapamycin inhibits GR nuclear translocation and phosphorylation. A. GR nuclear translocation in HaCaT cells was determined by immunofluorescence as described in Materials and Methods. Cells on coverslips were pretreated with solvent (Control) or Rapamycin (1 uM×6 h) and treated with 1 uM FA for indicated time. B. GR nuclear translocation in CEM cells was determined by Western blot analysis of nuclear protein extracts. Membranes were probed with anti-HDAC-1 antibodies to verify equal protein loading and transfer. C, D. GR phosphorylation in HaCaT (C) and CEM (D) cells was determined by Western blot analysis of whole cell lysates. Membranes were probed with anti-GAPDH antibodies to verify equal protein loading and transfer.
GR nuclear translocation was determined by immunofluorescence in HaCaT cells. Cells infected with pGIPZ and shREDD1 lentiviruses were selected with puromycin, seeded on coverslips. After the treatments, cells were fixed with 2% formaldehyde and permeabilized with acetone:methanol (1:1 v/v). After blocking, cells were incubated with primary rabbit anti-GR antibody (H-300, Santa Cruz Biotechnology, Santa Cruz, Calif., USA) followed by secondary anti-rabbit FITC-conjugated antibody (Jackson Immuno Research). Cell nuclei were counterstained with DAPI (Invitrogen, Life Technologies, Grand Island, N.Y., USA). […]

GR [6] = test: GR phosphorylation at Ser211 (Western blot) in HaCaT and CEM cells; assay type: cell-based, human; settings: keratinocytes and lymphoid CEM cells, Rapamycin 1 uM×6 h pretreatment
Experimental: as §1
The whole-cell protein extracts were prepared using RIPA buffer with protease and phosphatase inhibitor cocktails (Thermo Scientific, Thermo Fisher Scientific Inc., Waltham, Mass., USA), resolved by SDS-PAGE on 4-20% gels and transferred to Odyssey nitrocellulose membranes (LI-COR Biosciences, Lincoln, Neb., USA). Membranes were blocked with Odyssey Blocking Buffer and incubated with primary antibodies overnight at 4° C., followed by IRDye® secondary antibodies (LI-COR Biosciences). LI-COR Odyssey Imager was used for the band visualization. […]

Row | SMILES | protection of s.c. adipose tissue from FA-induced atrophy (mouse skin) | REDD1 induction in epidermis by FA, mRNA and protein levels (REDD1 [1]) | effect on edema induction and on FA antiinflammatory effect [2] | GR transcriptional activation by glucocorticoid (GRE.Luciferase reporter) (GR [3]) | basal and FA-induced REDD1 mRNA and protein (REDD1 [4]; HaCaT, NHEK and CEM cells, Rapa 1 uM×6 hrs pretreatment) | effect on FA-induced GR nuclear translocation (GR [5]) | FA-induced GR phosphorylation (GR [6]) | basal and glucocorticoid-induced REDD1 mRNA and protein (REDD1 [4]) | basal and glucocorticoid-induced REDD1 mRNA and protein (REDD1 [4]; listed as OSI-127)
1 | CO[C@H]1C[C@@H]2CC[C@@H](C)[C@@](O)(O2)C(=O)C(=O)N2CCCC[C@H]2C(=O)O[C@H]([C@H](C)C[C@@H]2CC[C@@H](O)[C@H](OC)C2)CC(=O)[C@H](C)/C=C(\C)[C@@H](O)[C@@H](OC)C(=O)[C@H](C)C[C@H](C)/C=C/C=C/C=C/1C [Rapamycin] | not significantly protected | drastically blocked | did not affect | impeded GR transcriptional activation | inhibited both basal and FA-induced REDD1 at mRNA and protein levels | delayed GR nuclear translocation and accelerated GR export from the nucleus | almost completely abolished | – | –
2 | COc1cccc2cc(-c3nc([C@H]4CC[C@H](C(=O)O)CC4)n4ncnc(N)c34)[nH]c12 [OSI-027] | – | – | – | – | – | – | – | down-regulates REDD1 expression | potently inhibited both basal and glucocorticoid-induced REDD1 mRNA and protein

From US9980976B2, “Use of REDD1 inhibitors to dissociate therapeutic and adverse atrophogenic effects of glucocorticoid receptor agonists” (Northwestern University, priority 2015, dated 2018)
